{
  "source": "paper PMC9698730",
  "about": "(Molecules, 2022)",
  "tested_on": "RNA-FL complex",
  "assay_type": "binding, SARS-CoV-2",
  "protocol": "To further address whether the ligands may modify the oligomeric status of the FL protein, we performed dynamic light scattering experiments. […] We then tested whether ligand binding to FL could be competitive with nucleic acids binding.\nThe experiments were performed on a Malvern nanosizer apparatus. The temperature was set at 20 °C, and 10 scans with a duration of 10 s each were acquired in duplicate for each time and sample. The size distribution in the intensity of the scattered light was obtained using the Cumulants method from the instrumental software, yielding the hydrodynamic diameter. The N NTD concentration was in the range of 40–60 μM, the FL concentration was in the range of 1 to 10 µM in 20 mM Tris buffer at pH = 7.9 containing 100 mM NaCl. The melting experiments were performed at a heating rate of 1 °C/min over the range 30 °C to 65 °C in sealed disposable cuvettes. The apparent melting temperature, Tm, was determined by the first derivative of the melting curve.",
  "data": [
    {"smiles": "COc1ccc2cc([C@H](C)C(=O)O)ccc2c1", "note": "[Naproxen, naproxen]", "values": [
      {"measurement": "competition with RNA / nucleic acids binding to FL", "result": "consistent with a competition"}
    ]}
  ]
}
